The record followed here is paper PMC6007958, “Identification, characterization and application of a new peptide against anterior gradient homolog 2 (AGR2)” (Oncotarget, 2018).

Amino acid sequences for entries named in this document (tags omitted). Residues count along the entry.
UniProt O95994, residues 21-175: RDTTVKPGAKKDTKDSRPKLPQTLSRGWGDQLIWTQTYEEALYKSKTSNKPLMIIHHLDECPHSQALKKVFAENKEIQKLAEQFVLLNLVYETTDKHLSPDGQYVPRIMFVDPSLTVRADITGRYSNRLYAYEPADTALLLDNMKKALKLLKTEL

Experiment [1] concerns the target T1, H10 peptide (biotin-…).
T1 sequence (peptide, biotin (N-Terminal)): GGGSGMKMQVRIYLV
The experiment is described as follows: ELISA; biotinylated H10 on streptavidin coated plates; filtered spent media of MCF-7 or 22Rv1 cells (48 h, 10% FBS); detected with anti-AGR2 antibody; only the target purified. (In general: In an ELISA, binding on a coated surface is turned into a signal by an enzyme label.)

Experiment [2] deals with T1, H10 peptide (biotin-…). Put plainly: SPR; immobilised H10; AGR2 and AGR3 injected at 200 nM; both purified.

These are yes or no findings as the source states them, for the method shown. Some binding calls cover weakened binding; strength is not graded here.

Consider “extracellular AGR2 (eAGR2) in spent media of cancer cell lines (from UniProt O95994 21-175)”, for which the binding result with H10 peptide (biotin-…) [1] is reported as “binds”.

B1: AGR3 (recombinant anterior gradient protein 3, amino acids 4-166) (protein, UniProt Q8TD06 4-166)
chain: HSALGLCLLLVTVSSNLAIAIKKEKRPPQTLSRGWGDDITWVQTYEEGLFYAQKSKKPLMVIHHLEDCQYSQALKKVFAQNEEIQEMAQNKFIMLNLMHETTDKNLSPDGQYVPRIMFVDPSLTVRADIAGRYSNRLYTYEPRDLPLLIENMKKALRLIQSEL
With B1, the binding entry with H10 peptide (biotin-…) [2] is “no binding (tested: 200 nM)”.
